Publication PMC4751492
No constants are given. Whether binding was seen depends on the method and setting. Some binding calls cover weakened binding; strength is not graded here. Tags and fused reporters may be left off the sequences shown.

Protein sequences, listed by entry. Tags and fused reporters are not part of them.
UniProt P32120: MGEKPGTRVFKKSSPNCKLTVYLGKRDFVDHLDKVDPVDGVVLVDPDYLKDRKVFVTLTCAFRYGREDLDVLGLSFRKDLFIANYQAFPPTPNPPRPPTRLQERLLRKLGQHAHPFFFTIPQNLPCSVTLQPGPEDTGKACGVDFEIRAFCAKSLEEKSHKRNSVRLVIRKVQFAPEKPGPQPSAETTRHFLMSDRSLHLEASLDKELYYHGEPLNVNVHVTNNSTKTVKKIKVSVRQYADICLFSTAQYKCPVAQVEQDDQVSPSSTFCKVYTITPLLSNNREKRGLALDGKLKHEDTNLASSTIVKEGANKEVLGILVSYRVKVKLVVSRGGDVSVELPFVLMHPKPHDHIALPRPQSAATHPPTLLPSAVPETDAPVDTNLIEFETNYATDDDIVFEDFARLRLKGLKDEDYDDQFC

T1: MBP-T1A (first 25 residues of arrestin-3 fused to MBP)
T1 chain: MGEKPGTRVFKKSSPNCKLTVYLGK

B1: GST-MKK4, P45985 1-399 (enzyme)
chain: MAAPSPSGGGGSGGGSGSGTPGPVGSPAPGHPAVSSMQGKRKALKLNFANPPFKSTARFTLNPNPTGVQNPHIERLRTHSIESSGKLKISPEQHWDFTAEDLKDLGEIGRGAYGSVNKMVHKPSGQIMAVKRIRSTVDEKEQKQLLMDLDVVMRSSDCPYIVQFYGALFREGDCWICMELMSTSFDKFYKYVYSVLDDVIPEEILGKITLATVKALNHLKENLKIIHRDIKPSNILLDRSGNIKLCDFGISGQLVDSIAKTRDAGCRPYMAPERIDPSASRQGYDVRSDVWSLGITLYELATGRFPYPKWNSVFDQLTQVVKGDPPQLSNSEEREFSPSFINFVNLCLTKDESKRPKYKELLKHPFILMYEERAVEVACYVCKILDQMPATPSSPMYVD
B2: GST-MKK4 (enzyme, UniProt P45985 1-399)
chain: B1 chain
B3: JNK3α2, P53779 1-464 (enzyme)
chain: MSLHFLYYCSEPTLDVKIAFCQGFDKQVDVSYIAKHYNMSKSKVDNQFYSVEVGDSTFTVLKRYQNLKPIGSGAQGIVCAAYDAVLDRNVAIKKLSRPFQNQTHAKRAYRELVLMKCVNHKNIISLLNVFTPQKTLEEFQDVYLVMELMDANLCQVIQMELDHERMSYLLYQMLCGIKHLHSAGIIHRDLKPSNIVVKSDCTLKILDFGLARTAGTSFMMTPYVVTRYYRAPEVILGMGYKENVDIWSVGCIMGEMVRHKILFPGRDYIDQWNKVIEQLGTPCPEFMKKLQPTVRNYVENRPKYAGLTFPKLFPDSLFPADSEHNKLKASQARDLLSKMLVIDPAKRISVDDALQHPYINVWYDPAEVEAPPPQIYDKQLDEREHTIEEWKELIYKEVMNSEEKTKNGVVKGQPSPSGAAVNSSESLPPSSSVNDISSMSTDQTLASDTDSSLEASAGPLGCCR

Legend:
[1] = biological target: T1, MBP-T1A (first 25 residues of …); experiment: pull-down; MBP fusions (10-30 μg) immobilised on amylose resin, 1 h 4 °C; purified kinase (10 μg in 20 mM Tris/150 mM NaCl) added 2 h 4 °C; washed with 50 mM HEPES-Na pH 7.3, 150 mM NaCl; eluted with 50 mM maltose; SDS-PAGE and Western blot; both purified; conditions: remark: other sources report otherwise
[2] = biological target: MBP-arrestin-3 (full-length arrestin-3 fused to MBP) (UniProt P32120); experiment: as above

Row | Binder | binding [1] | binding [2]
1 | B1 | binds | –
2 | B2 | – | binds
3 | B3 | binds | –
